How the values were obtained:
Format in all cases: cell-based
[1] = system: chloroquine sensitive strain of P. falciparum (3D7); experiment: In vitro antiplasmodial assay (parasite lactate dehydrogenase, pLDH)
Protocol: An antimalarial evaluation was performed against the chloroquine sensitive strain of P. falciparum (3D7) using the parasite lactate dehydrogenase (pLDH) assay as previously reported. Parasites were seeded at 2% parasitemia and 1% hematocrit in 96 well plates and were incubated with 20 µM of the test compounds for 48 h in culture medium consisting of Rosell Park Memorial Institute (RPMI 1640; Lonza, Basel, Switzerland) containing 25 mM 4-(2-hydroxyethyl)-1-piperazineethanesulfonic acid (HEPES), supplemented with 0.5% (w/v) Albumax II, 22 mM glucose, 0.65 mM hypoxanthine, 0.05mg/mL gentamicin, and 1% (v/v) human erythrocytes, at 37 °C under an atmosphere of 5% CO2, 5% O2, and 90% N2. The parasite lactate dehydrogenase activity in the wells was determined using the colorimetric assay method of Makler et al.. The absorbance readings were converted to % parasite viability relative to the wells containing untreated parasites.
(§1) Thirty-five tetralone derivatives (see Figure 2) and six related benzocycloalkanones (see Figure 3) were evaluated in vitro against T. b. brucei for antitrypanosomal activity through the resazurin assay protocol. The compounds were also evaluated against the chloroquine-sensitive strain (3D7) of P. falciparum for antimalarial activity using pLDH assay and against the HeLa cell line for cytotoxicity evaluation using the resazurin assay protocol. […]

HeLa cells = experiment: In vitro cytotoxicity assay (resazurin); conditions: 20 µM compound, 24 h, % cell viability relative to untreated control
Protocol: As previously described, HeLa cells (Cellonex, Johannesburg, South Africa) were seeded in 96-well plates at a density of 2 × 10^4 cells/well in Dulbecco’s modified Eagle’s medium (DMEM) (Lonza, Basel, Switzerland) supplemented with 10% fetal calf serum and antibiotics (penicillin/streptomycin/amphotericin B) and incubated overnight at 37 °C in a 5% CO2 incubator. Compounds were added to the cells at a final concentration of 20 µM, and incubation continued for 24 h. The cell viability in the wells was assessed by adding 20 µL of resazurin reagent (0.135 mg/mL resazurin in phosphate-buffered saline) and reading the fluorescence (Ex560/Em590) after an additional 2–4 h incubation. The fluorescence readings were converted to % cell viability relative to the average readings obtained from the untreated control wells.
as §1

[2] = system: 427 Trypanosoma brucei brucei trypomastigotes; experiment: In vitro anti-trypanosomal assay (resazurin); conditions: 20 µM compound, 48 h, % parasite viability relative to untreated control
Protocol: The activity of the compounds against 427 Trypanosoma brucei brucei trypomastigotes was determined as previously described. Briefly, parasites were incubated in 96-well plates with 20 µM or three-fold serial dilutions (100 µM starting concentration) of test compounds in Iscove’s modified Dulbecco’s medium (IMDM) (Lonza, Basel, Switzerland) supplemented with 10% fetal calf serum, HMI-9 supplement, hypoxanthine, and penicillin/streptomycin at 37 °C in a 5% CO2 incubator. After 48 h, 20 µL of resazurin reagent (0.135 mg/mL resazurin in phosphate-buffered saline) was added to each well and the fluorescence (Ex560/Em590) read after 2–4 h in a Spectramax M3 plate reader (Molecular Devices, San Jose, CA, USA). The fluorescence readings were used to calculate % parasite viability relative to the readings obtained from the wells containing untreated control parasite cultures. The IC50 values were determined by plotting % viability vs. log(compound) and performing a non-linear regression using a GraphPad Prism (v. 5.02) (San Diego, CA, USA).
Thirty-five tetralone derivatives (see Figure 2) and six related benzocycloalkanones (see Figure 3) were evaluated in vitro against T. b. brucei for antitrypanosomal activity through the resazurin assay protocol. […]

COc1ccc2c(c1)C(=O)/C(=C/c1ccncc1)CC2 [Compound 32]
% Viability at 20 µM (SD) 3D7 [1]: 36 (12) %
% Viability at 20 µM (SD) HeLa Cell (HeLa cells): 23 (2) %
% Viability at 20 µM (SD) T.b. brucei [2]: −0.1 (0.7) %
